These are yes or no findings as the source states them, for the method shown. In cells and extracts the contact can be indirect. Sequences can lack the tags named with a protein.
Target: HSPA8 protein without the SBD domain (MYC-HSPA8 fragment) (mouse)
Experiment: co-IP; HEK293T cells co-transfected with FLAG- and MYC-tagged mouse constructs, lysate, Western blot

B1: FLAG-SPATA6 (protein, UniProt Q3U6K5 18-488)
chain: VTCPGVVLKDKEDIYLSICVFGQYKKTQCVPATFPLVFNARMVFEKVFPEAVDPGDVVAQLEYDTAVFELIQLVPPVGETLSTYDENTRDFMFPGPNQMSGHHDSNRQVTMRRISGLRGIAPKLEFSTTSVITECLISSRKCRTQDKFTYHSAPVEKSHGRLQCRTSRSQKKKSKSPERSKYCINTKNYEQPTISSKSHSPSPYTKRRMCELSEDTRRRLAHLNLGPYEFKKETDKPPFVIRHVDPPSPRTDNFFGSPGRDCERDGWVRMHSDHPHIGCCRSKDYKVIRSPHGRDFEDPFERCEEYLSPRTCSKPQHSARTLLVHSAPSTTPKHCASPVLNRASLRERFHSDWCSPPNCDEIHDRVKDVLKSHQAHARHLCDERDPEREDELELKRSLLYRDSAYDSDPEYSSFQRPRGSFHLDDGECWSNRAASCKGKSHRPVFENSMDKMYRNLYKKACSSVSHTQESF
**Q.** For B1, which binding is on record?
**A.** no binding

Source: paper PMC11015022
